# ± gives the standard deviation. This is a selection; strong and weak results do not stand in their true shares. Many entries were measured with a wide error.
# Tested on: MILI (PIWIL2) piRISC loaded with L1MC piRNA (26 nt)
# Test: pre-steady-state target cleavage rate (min^-1); MIWI and MILI are mouse PIWI proteins and EfPiwi is from a freshwater sponge; tags in brackets are library labels; higher = faster piRNA-guided slicing of the target
# Conditions: guide: L1MC piRNA 5'p-UAACUAAAUACUAUGCAAGCUGUAGG; auxiliary factor: 500 nM mouse GTSF1
# Method: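 Cleave-'n-Seq: a library of target RNAs (target site embedded in constant flanks, ACAGCATTCCGCGTTAGTGATATCCG... 5' flank; DNA-blocked outside the site) at 0.1 nM was incubated with 1 nM active mouse MILI or MIWI piRISC (synthetic 5'-monophosphorylated piRNA guide) with or without 500 nM mouse GTSF1 at 33 °C for 1 min to 16 h. Uncleaved targets were sequenced and normalised to non-target controls, and the pooled three trials were fitted to a burst-and-steady-state model to give the pre-steady-state cleavage rate (min^-1; k3 is constrained to at most 1e-4). Sequence is the target site only; target names encode pairing extent (gX:gY) and contiguous / 1-mismatch / 2-mismatch / bulge geometry. Fits with R² ≤ 0 are excluded.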
row,Sequence,pre-steady-state target cleavage rate
1,UCCUGGUACUGCUUGCAUAGUUUUUAGUUA,0.0403 ± 0.012
2,UCCUGGAUGAGCUUGCAUCGUAUUUAGUUA,0.0594 ± 0.0092
3,UCCUGGAUGUGCUUGCAUAGUAUUUUCUAA,0.00295 ± 0.0042
4,UCCUGGAUGUGCUUGCAUAGUAUUUAGUUUA,0.141 ± 0.015
5,UCCUGGAACAGCUUGCAUAGUAUUUAGUCUA,0.055 ± 0.015
6,UCCUGCUACAGCUAGCAUAGUAUUUACUUA,0.351 ± 0.051
7,UCCUGCUACAGCUUGCACAGUAUUUAGUUA,0.157 ± 0.015
8,UCCUGGUACAGGUUGGAUAGUAUUUAGUUA,0.303 ± 0.043
9,UCCUCCUACAGCAUGCAUAGAAUUUAGUUA,0.176 ± 0.044
10,UCCUGGAACAGCAAGCAUAGUAUUUAGUUA,0.275 ± 0.018
11,UCCUGGAUGUGGUUGCAUAGUAUUUAGAUA,0.0485 ± 0.021
12,UCCUGCUACAGCUUGCAUGGUAUUUAGUUA,0.334 ± 0.018
13,UCCUGGUACAGGUUGCAUACUAUUUAGUUA,0.111 ± 0.033
14,UCCUGGUACAGCUUGCAAAGAAUUUAGUUA,0.00951 ± 0.0059
15,UCCUCCUACAGCUUGCAUACAUUUUAGUUA,0.00509 ± 0.0039

# Same assay, conditions: guide: L1MC piRNA 5'p-UAACUAAAUACUAUGCAAGCUGUAGG; auxiliary factor: none (no GTSF1)
row,Sequence,pre-steady-state target cleavage rate
1,UCCUGGUACUGCUUGCAUAGUUUUUAGUUA,0.00996 ± 0.0046
2,UCCUGGAUGAGCUUGCAUCGUAUUUAGUUA,0.00554 ± 0.0025
3,UCCUGGAUGUGCUUGCAUAGUAUUUUCUAA,0.00066 ± 0.011
4,UCCUGGAUGUGCUUGCAUAGUAUUUAGUUUA,0.00735 ± 0.0032
5,UCCUGGAUCAGCUAGCAUAGUAUUUUCAAA,0.00148 ± 0.0042
6,UCCUGGUACAGCUUGCAUAGUUUUUACAAA,0.00071 ± 0.0077
7,UCCUGGAACAGCUUGCAUAGUAUUUAGUCUA,0.00289 ± 0.003
8,UCCUGCUACAGCUAGCAUAGUAUUUACUUA,0.00199 ± 0.0044
9,UCCUGGAUGAGCUUGCAUAGUAUAAACAAA,0.000567 ± 0.013
10,UCCUGGAUGUCGAAGCAAAGUAUUUAGAUA,0.00028 ± 0.016
11,UCCUGGAUGUGCUUGCAUAGUAUAAAGUAA,0.000732 ± 0.0074
12,UCCUGCUACAGCUUGCACAGUAUUUAGUUA,0.00803 ± 0.0023
13,UCCUCCUACAGCAUGCAUAGAAUUUAGUUA,0.00199 ± 0.0036
14,UCCUGGAACAGCAAGCAUAGUAUUUAGUUA,0.00588 ± 0.0024
15,UCCUGGAUGUGGUUGCAUAGUAUUUAGAUA,0.000898 ± 0.011
16,UCCUGGAUGUCGAUGCAUAGUUAUUUAGUUA,0.00216 ± 0.0029
17,UCCUGGAUGUCGAACCUUAGUAUUUAGUAA,0.000408 ± 0.0085
18,UCCUGGAUGUCGAACGUAAGUAUUUAGUGUA,0.000183 ± 0.033
19,UCCUGGAUGUCGAACGAUAGUAUUUUAGUUA,0.000125 ± 0.04
20,UCCUGGUACAGGUUGCAUACUAUUUAGUUA,0.00543 ± 0.0028
21,UCCUCCUACUGCUUGCAUAGUAUUUAGUAA,0.00235 ± 0.0025
22,UCCUGGUACAGCUUGCAAAGAAUUUAGUUA,0.00286 ± 0.004
23,UCCUCCUACAGCUUGCAUACAUUUUAGUUA,0.00189 ± 0.0027
24,UCCUGGAUGAGCUUGCAUAGUAUAAUCAAA,0.000818 ± 0.0078
25,UCCUGGAUGAGCUAGCAUAGUAUUUAGAAA,0.00129 ± 0.005

# — the supplement of paper PMC10338343
